Results as given in PubChem BioAssay AID662 (National Center for Advancing Translational Sciences (NCATS), 2007).
The list shows a part of the results. Shown are side measurements of this screen, not its main read-out; they come without a call. Compounds called inactive in the main read-out are mostly missing here. Words in brackets tell the shape of the fitted curve; partial curves, single points and poor fits give uncertain potencies.

Experiment: Cell signaling CRE-BLA (Fsk stim)
Conditions: CHO CRE-bla reporter (cAMP response element driving beta-lactamase), forskolin EC10, beta-lactamase ratio; measured here: 460 nm blue channel
How it was run: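 Using CellSensor CRE-bla CHO cells in Opti-MEM with 0.5% dialyzed FBS, compounds were titrated with EC10 NKH 477 for 3 h at 37 °C. CCF4 ratio (460/530 nm) gave %Activity; AC50 derived.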

| SMILES | AC50 |
| --- | --- |
| Cc1ccc(N2CCN(C(=O)CNS(=O)(=O)c3ccc(Br)s3)CC2C)cc1 (centres undefined) | 25.1 µM [rising, single point] |
| COc1ccccc1CNc1ncncc1-c1ccc2c(c1)OCO2 | 10 µM [rising, partial curve] |
| CN1CCc2cc(Cl)c(O)cc2[C@@H](c2ccccc2)C1 | 25.1 µM [falling, partial curve, poor fit] |
| COC(=O)c1c(NC(=O)C2CC2)sc2c1CCCC2 | 12.6 µM [rising, single point] |
| Clc1ccccc1-c1nc(N2CCNCC2)c2ccccc2n1 | 3.16 µM [rising, partial curve] |
| Cn1c(=O)n(C)c(=O)n(CC(=O)N2CCCCC2)c1=O | 25.1 µM [rising, single point] |
| COc1ccc(C(=O)OCCN2C(=O)c3ccccc3C2=O)cc1OC | 2 µM [rising, partial curve] |
| COc1ccc(CNc2nc3nc(C)c(Cl)c(C)n3n2)cc1OC | 10 µM [rising, partial curve] |
| COc1cccc(/C=N/n2c(CO)nc3ccccc32)c1OC | 0.1 µM [rising, full curve] |
| COc1cc(C(=O)COC(=O)Cc2cnc3sccn23)cc(OC)c1OC | 12.6 µM [rising, single point] |
| CCNC(=O)c1cc2c(=O)n3cccc(C)c3nc2n(Cc2ccc(C)cc2)c1=N | 1 µM [rising, full curve] |
| COc1ccc(-c2nc3cnc(N4CCN(C)CC4)nc3n(Cc3cccs3)c2=O)cc1 | 2.51 µM [rising, full curve] |
| Cc1nn(Cc2ccc(Cl)cc2Cl)c(C)c1NC(=O)c1nc2n(n1)C(C(F)F)CC(C)N2 (centres undefined) | 3.16 µM [falling, single point] |
| COC(=O)C1=CN(CC2CCCO2)C=C(C(=O)OC)C1c1ccsc1 (centres undefined) | 12.6 µM [rising, partial curve] |
| CCn1c2ccccc2c2nnc(SCC(=O)NC(CC(C)C)C(=O)OC)nc21 (centres undefined) | 10 µM [rising, partial curve] |
| O=S(=O)(/N=S1/CC=CCN1S(=O)(=O)c1ccccc1)c1ccccc1 (centres undefined) | 15.8 µM [falling, partial curve] |
| Cc1ccc(N(Cc2ccco2)C(=O)c2cccc(S(=O)(=O)N(C)C)c2)cc1 | 5.01 µM [rising, partial curve] |
| CCCS(=O)(=O)N1CCC(C(=O)N2CCOCC2)CC1 | 0.00398 µM [falling, full curve, poor fit] |
| O=C1Nc2ccccc2OC1CC(=O)N1CCN(c2cccc(C(F)(F)F)c2)CC1 (centres undefined) | 20 µM [falling, partial curve, poor fit] |

2 compounds picked at random from the list so far:

| SMILES | AC50 |
| --- | --- |
| O=S(=O)(/N=S1/CC=CCN1S(=O)(=O)c1ccccc1)c1ccccc1 (centres undefined) | 15.8 µM [falling, partial curve] |
| Cc1nn(Cc2ccc(Cl)cc2Cl)c(C)c1NC(=O)c1nc2n(n1)C(C(F)F)CC(C)N2 (centres undefined) | 3.16 µM [falling, single point] |
